# Some of the results follow. Single values are uncertain, as repeats are few or missing.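 Cells were imaged in 1,536-well plates, and nuclei stained with an antibody against cleaved PARP were counted against all DNA-stained nuclei to give the apoptosis fraction. Screening doses were chosen to leave most cells alive, and resting and induced cleaved-PARP levels differ strongly between cell lines.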
# System: CBRC017 (line from a melanoma biopsy)
# Assay: cleaved PARP positive nuclei fraction relative to DMSO control; melanoma cells; higher = more apoptosis
# Settings: library dose: low library concentration; 72 h
row,Compound,cleaved PARP positive nuclei fraction [%]
1,"Cc1cc(Nc2cc(N3CCN(C)CC3)nc(Sc3ccc(NC(=O)C4CC4)cc3)n2)n[nH]1 [Tozasertib] + N#Cc1c(O)c2c(-c3ccc(-c4ccccc4O)cc3)csc2[nH]c1=O [A769662] (first compound 0.006 µM, partner dose 2 µM)",71.3
2,"O=C(Nc1cc(C(F)(F)F)cc(C(F)(F)F)c1)c1cc(Cl)ccc1O + COc1ccc(COc2ccc(Cc3cnc(N)nc3N)cc2OC)cc1 [GW2580] (first compound 0.016 µM, partner dose 1 µM)",133
3,"O=C(/C=C/c1cccnc1)NCCCCC1CCN(C(=O)c2ccccc2)CC1 + COc1cc(N2CCC(N3CCN(C)CC3)CC2)ccc1Nc1ncc(Cl)c(Nc2ccccc2S(=O)(=O)C(C)C)n1 [NVP-TAE684] (first compound 0.01 µM, partner dose 0.08 µM)",329
4,"N#CC[C@H](C1CCCC1)n1cc(-c2ncnc3[nH]ccc23)cn1 [ruxolitinib] + Cn1cc(/C=C2\C(=O)Nc3cccnc32)c2ccccc21 [GW441756] (first compound 1 µM, partner dose 0.4 µM)",83.3
5,"CCCCCCCCCCCCCCCCCCOP(=O)([O-])OC1CC[N+](C)(C)CC1 [Perifosine] + Oc1nc(-c2ccc(C(F)(F)F)cc2)nc2c1CSCC2 [XAV939] (first compound 0.4 µM, partner dose 2 µM)",63.2
6,"O=C(/C=C/c1cccnc1)NCCCCC1CCN(C(=O)c2ccccc2)CC1 + Oc1nc(-c2ccc(C(F)(F)F)cc2)nc2c1CSCC2 [XAV939] (first compound 0.01 µM, partner dose 2 µM)",73.5
7,"Cc1ccc(Nc2nccc(N(C)c3ccc4c(C)n(C)nc4c3)n2)cc1S(N)(=O)=O [Pazopanib] + N#Cc1c(O)c2c(-c3ccc(-c4ccccc4O)cc3)csc2[nH]c1=O [A769662] (first compound 0.4 µM, partner dose 2 µM)",64.4
8,"N#CC[C@H](C1CCCC1)n1cc(-c2ncnc3[nH]ccc23)cn1 [ruxolitinib] + COc1cc2ncnc(Nc3ccc(Oc4ccccc4)cc3)c2cc1OC [SrcI1] (first compound 1 µM, partner dose 2 µM)",88.4
9,"O=C(Nc1cc(C(F)(F)F)cc(C(F)(F)F)c1)c1cc(Cl)ccc1O + CCN(CC)CCCCNc1ncc2cc(-c3cc(OC)cc(OC)c3)c(NC(=O)NC(C)(C)C)nc2n1 [PD173074] (first compound 0.016 µM, partner dose 0.1 µM)",64.1
10,"CCCCCCCCCCCCCCCCCCOP(=O)([O-])OC1CC[N+](C)(C)CC1 [Perifosine] + COc1ccc2c(c1)CCC1C2CCC2(C)C(NCCCCCCN3C(=O)C=CC3=O)CCC12 [U73122] (first compound 0.4 µM, partner dose 0.4 µM)",88.8
11,"O=c1[nH]nc(Sc2ncc([N+](=O)[O-])s2)n1-c1ccc2c(c1)OCCO2 + N#Cc1c(O)c2c(-c3ccc(-c4ccccc4O)cc3)csc2[nH]c1=O [A769662] (first compound 0.2 µM, partner dose 2 µM)",192
12,"O=c1[nH]nc(Sc2ncc([N+](=O)[O-])s2)n1-c1ccc2c(c1)OCCO2 + COc1ccc2c(c1)CCC1C2CCC2(C)C(NCCCCCCN3C(=O)C=CC3=O)CCC12 [U73122] (first compound 0.2 µM, partner dose 0.4 µM)",87.6
13,"N#CC[C@H](C1CCCC1)n1cc(-c2ncnc3[nH]ccc23)cn1 [ruxolitinib] + O=C(Nc1ccccc1)c1cc([N+](=O)[O-])ccc1Cl [GW9662] (first compound 1 µM, partner dose 2 µM)",103
14,"O=C(/C=C/c1cccnc1)NCCCCC1CCN(C(=O)c2ccccc2)CC1 + O=c1cc(-c2cccc3c2Sc2ccccc2S3)oc(N2CCOCC2)c1 [KU55933] (first compound 0.01 µM, partner dose 1 µM)",436
15,"CCCCCCCCCCCCCCCCCCOP(=O)([O-])OC1CC[N+](C)(C)CC1 [Perifosine] + Cc1cc([N+](=O)[O-])ccc1NS(=O)(=O)c1cc(Cl)ccc1Cl [FH535] (first compound 0.4 µM, partner dose 1 µM)",257

# Numbers 14 through 15 from above:
row,Compound,cleaved PARP positive nuclei fraction [%]
14,"O=C(/C=C/c1cccnc1)NCCCCC1CCN(C(=O)c2ccccc2)CC1 + O=c1cc(-c2cccc3c2Sc2ccccc2S3)oc(N2CCOCC2)c1 [KU55933] (first compound 0.01 µM, partner dose 1 µM)",436
15,"CCCCCCCCCCCCCCCCCCOP(=O)([O-])OC1CC[N+](C)(C)CC1 [Perifosine] + Cc1cc([N+](=O)[O-])ccc1NS(=O)(=O)c1cc(Cl)ccc1Cl [FH535] (first compound 0.4 µM, partner dose 1 µM)",257
